Measurements from the supplement of paper PMC11006884.
The list shows a part of the results, in another mix than the full data.

The chains behind the UniProt entries cited, without tags or fusion partners. Where a name states a change or a piece, a line headed by the entry shows the natural chain unless it says otherwise.
UniProt O15355: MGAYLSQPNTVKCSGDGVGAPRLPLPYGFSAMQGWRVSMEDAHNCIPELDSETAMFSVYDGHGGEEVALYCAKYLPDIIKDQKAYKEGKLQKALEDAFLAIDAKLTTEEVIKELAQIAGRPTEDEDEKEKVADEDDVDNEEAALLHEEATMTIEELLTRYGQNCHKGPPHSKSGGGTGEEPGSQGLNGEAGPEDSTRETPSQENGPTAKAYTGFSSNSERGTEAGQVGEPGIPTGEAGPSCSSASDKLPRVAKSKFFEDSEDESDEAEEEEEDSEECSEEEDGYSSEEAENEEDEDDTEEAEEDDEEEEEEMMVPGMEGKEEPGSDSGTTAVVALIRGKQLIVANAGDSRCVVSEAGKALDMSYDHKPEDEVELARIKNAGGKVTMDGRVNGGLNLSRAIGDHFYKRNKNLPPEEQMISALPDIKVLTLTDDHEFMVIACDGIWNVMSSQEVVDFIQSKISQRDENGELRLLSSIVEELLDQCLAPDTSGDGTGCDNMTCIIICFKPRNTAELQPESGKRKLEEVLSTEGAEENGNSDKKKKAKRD
UniProt O14617: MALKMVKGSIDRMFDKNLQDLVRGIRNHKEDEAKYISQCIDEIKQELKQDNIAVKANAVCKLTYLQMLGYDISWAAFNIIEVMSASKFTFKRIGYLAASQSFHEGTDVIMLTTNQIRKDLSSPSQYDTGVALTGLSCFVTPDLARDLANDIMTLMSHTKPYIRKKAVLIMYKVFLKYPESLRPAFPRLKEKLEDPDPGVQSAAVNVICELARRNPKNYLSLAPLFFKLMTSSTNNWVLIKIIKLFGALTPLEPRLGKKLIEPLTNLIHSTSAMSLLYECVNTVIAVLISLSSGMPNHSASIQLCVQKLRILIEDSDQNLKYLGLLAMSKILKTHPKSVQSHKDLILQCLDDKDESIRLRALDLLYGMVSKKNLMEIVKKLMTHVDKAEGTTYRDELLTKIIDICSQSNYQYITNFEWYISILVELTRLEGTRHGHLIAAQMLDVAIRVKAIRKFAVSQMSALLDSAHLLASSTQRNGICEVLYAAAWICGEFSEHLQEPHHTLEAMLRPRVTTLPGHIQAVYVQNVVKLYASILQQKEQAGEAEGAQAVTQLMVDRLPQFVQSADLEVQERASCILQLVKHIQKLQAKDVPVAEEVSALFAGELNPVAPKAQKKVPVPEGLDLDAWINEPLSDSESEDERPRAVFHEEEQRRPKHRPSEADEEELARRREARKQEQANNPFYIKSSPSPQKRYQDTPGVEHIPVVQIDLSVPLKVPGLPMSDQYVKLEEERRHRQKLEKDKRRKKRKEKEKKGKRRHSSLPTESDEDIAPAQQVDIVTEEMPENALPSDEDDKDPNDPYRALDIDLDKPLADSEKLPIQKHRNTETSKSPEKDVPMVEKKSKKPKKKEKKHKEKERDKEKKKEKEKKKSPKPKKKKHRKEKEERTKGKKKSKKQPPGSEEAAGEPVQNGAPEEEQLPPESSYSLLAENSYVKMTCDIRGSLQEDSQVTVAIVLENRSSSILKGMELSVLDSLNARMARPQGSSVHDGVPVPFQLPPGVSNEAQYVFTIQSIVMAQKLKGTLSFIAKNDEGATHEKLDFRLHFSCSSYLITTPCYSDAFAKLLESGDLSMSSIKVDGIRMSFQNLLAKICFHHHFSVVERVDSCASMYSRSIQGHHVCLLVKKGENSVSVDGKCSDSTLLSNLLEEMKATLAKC
UniProt O15381: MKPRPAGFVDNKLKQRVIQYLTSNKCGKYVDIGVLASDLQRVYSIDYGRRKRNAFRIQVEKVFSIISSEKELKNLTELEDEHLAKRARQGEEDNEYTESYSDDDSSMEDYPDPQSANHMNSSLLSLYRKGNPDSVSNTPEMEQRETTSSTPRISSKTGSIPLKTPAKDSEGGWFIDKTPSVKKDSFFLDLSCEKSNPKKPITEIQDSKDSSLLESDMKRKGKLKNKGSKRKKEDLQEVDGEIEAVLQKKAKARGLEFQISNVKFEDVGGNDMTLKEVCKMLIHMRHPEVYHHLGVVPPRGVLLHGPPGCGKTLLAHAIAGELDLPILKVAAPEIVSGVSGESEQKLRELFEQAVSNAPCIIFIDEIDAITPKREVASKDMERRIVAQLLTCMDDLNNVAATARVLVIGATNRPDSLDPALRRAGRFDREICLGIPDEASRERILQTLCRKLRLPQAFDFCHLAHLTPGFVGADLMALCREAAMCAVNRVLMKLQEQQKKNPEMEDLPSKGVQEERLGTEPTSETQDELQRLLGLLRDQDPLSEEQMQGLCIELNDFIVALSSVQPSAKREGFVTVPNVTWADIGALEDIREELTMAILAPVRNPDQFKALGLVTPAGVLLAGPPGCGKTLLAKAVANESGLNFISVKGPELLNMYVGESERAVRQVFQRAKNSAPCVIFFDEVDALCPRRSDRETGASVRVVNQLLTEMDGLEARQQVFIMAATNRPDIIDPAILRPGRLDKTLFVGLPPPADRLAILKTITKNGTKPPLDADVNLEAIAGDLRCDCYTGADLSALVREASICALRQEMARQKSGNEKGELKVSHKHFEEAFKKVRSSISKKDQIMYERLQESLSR
UniProt O00203: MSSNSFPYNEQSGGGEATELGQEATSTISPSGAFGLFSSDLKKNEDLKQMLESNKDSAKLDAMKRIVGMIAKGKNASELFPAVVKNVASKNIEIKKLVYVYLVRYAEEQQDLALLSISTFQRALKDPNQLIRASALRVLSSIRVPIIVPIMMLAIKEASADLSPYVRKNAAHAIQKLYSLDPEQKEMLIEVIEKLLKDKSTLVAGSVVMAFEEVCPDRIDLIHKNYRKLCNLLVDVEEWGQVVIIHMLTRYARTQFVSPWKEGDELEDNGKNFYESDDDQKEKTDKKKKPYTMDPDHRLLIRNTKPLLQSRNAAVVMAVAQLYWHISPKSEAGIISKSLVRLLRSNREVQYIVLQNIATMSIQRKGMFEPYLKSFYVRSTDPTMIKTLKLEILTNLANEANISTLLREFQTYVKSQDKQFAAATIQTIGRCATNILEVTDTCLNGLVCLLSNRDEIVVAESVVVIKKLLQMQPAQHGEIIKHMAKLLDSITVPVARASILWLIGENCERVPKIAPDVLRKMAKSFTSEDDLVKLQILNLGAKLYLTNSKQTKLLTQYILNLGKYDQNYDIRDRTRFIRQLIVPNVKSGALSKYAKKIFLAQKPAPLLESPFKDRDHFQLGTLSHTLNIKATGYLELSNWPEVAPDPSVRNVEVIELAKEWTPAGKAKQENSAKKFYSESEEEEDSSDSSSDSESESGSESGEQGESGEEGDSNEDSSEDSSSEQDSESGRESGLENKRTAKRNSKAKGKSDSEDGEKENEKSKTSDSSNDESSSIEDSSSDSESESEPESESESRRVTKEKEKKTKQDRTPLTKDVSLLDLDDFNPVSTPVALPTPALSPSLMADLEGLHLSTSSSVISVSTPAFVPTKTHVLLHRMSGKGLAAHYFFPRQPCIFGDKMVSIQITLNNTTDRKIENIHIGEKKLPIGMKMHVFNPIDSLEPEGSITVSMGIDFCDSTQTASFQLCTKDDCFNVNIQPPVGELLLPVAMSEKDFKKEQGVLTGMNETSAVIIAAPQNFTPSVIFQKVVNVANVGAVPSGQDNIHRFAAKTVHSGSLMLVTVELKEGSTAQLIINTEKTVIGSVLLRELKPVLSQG
UniProt O15371, whole entry, looked up: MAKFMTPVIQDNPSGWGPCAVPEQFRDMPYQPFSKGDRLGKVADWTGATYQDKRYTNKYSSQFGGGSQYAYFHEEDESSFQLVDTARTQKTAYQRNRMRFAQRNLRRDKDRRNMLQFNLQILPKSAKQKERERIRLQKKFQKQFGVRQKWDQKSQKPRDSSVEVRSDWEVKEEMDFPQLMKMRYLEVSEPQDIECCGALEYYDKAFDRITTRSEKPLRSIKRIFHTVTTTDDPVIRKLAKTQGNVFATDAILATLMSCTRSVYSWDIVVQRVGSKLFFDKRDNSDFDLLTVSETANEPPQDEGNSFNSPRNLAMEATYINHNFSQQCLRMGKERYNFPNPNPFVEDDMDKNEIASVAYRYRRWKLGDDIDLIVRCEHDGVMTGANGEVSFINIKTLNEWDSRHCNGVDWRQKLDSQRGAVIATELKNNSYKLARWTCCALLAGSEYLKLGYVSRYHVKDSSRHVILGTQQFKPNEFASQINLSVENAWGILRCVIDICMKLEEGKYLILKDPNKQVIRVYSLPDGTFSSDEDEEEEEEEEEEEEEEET
UniProt O14964, whole entry, looked up: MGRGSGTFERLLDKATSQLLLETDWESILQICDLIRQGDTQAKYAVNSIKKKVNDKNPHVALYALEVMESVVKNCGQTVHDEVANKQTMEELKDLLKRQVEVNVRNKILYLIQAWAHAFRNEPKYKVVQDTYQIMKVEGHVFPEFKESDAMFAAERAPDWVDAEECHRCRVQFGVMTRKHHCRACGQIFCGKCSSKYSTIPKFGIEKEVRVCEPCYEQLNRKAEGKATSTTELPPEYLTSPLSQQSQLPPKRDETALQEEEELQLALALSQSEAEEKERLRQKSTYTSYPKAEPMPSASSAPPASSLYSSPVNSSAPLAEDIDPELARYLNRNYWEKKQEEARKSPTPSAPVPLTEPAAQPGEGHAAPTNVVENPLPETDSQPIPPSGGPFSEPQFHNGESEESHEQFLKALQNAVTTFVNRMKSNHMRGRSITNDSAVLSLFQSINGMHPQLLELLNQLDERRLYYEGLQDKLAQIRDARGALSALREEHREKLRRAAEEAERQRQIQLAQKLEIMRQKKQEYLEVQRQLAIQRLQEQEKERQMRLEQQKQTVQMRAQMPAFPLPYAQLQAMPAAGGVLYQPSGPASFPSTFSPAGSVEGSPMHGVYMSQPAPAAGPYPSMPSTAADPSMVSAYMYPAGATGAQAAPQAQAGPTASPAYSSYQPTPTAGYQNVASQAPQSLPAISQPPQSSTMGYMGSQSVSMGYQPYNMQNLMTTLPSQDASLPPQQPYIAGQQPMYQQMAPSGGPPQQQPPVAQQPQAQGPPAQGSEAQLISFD
UniProt O15304: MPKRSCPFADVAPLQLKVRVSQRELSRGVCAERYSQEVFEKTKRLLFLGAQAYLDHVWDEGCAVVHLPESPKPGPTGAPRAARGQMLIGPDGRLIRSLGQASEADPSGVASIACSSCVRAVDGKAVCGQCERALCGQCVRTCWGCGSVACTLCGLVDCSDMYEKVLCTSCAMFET
UniProt O00567: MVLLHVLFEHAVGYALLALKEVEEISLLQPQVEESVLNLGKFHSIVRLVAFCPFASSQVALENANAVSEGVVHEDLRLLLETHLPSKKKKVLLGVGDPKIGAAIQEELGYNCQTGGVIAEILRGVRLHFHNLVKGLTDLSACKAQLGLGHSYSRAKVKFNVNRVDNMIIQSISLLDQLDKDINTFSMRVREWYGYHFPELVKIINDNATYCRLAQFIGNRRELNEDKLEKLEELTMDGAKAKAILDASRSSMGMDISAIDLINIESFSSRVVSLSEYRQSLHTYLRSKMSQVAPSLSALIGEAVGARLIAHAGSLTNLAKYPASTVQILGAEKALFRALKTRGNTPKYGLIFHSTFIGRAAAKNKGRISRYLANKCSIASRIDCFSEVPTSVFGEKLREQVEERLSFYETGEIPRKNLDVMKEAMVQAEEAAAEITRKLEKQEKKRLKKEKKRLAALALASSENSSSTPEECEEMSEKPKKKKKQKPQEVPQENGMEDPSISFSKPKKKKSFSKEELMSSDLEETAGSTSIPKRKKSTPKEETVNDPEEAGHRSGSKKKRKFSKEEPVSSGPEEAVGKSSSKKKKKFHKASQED
UniProt O00471: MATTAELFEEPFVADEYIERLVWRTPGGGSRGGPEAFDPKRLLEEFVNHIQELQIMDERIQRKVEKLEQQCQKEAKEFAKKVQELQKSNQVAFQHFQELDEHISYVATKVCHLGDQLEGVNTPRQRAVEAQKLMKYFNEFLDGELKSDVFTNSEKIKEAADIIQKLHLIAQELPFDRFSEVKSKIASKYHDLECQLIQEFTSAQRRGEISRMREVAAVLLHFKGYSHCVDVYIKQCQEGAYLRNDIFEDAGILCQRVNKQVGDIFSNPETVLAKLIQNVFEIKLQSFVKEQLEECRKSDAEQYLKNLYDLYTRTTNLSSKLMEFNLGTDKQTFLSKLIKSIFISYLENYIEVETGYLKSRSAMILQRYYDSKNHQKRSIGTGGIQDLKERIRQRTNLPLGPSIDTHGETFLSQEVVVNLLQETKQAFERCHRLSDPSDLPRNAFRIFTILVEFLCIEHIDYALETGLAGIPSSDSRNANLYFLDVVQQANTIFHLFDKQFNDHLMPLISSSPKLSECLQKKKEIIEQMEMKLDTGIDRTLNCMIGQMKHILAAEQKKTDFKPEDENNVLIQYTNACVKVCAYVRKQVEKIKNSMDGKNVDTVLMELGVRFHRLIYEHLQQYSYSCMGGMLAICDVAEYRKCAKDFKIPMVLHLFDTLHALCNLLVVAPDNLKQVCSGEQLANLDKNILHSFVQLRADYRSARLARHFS

compound: COC(=O)C#Cc1ccccc1 [methyl 3-phenylpropiolate]; test: log2 ratio of iodoacetamide-alkyne labeling of the cysteine site, DMSO over compound (competition); higher = stronger covalent engagement of the cysteine by the compound, active = 1 or more; conditions: 500 µM; treatment time 1 h; system: HEK293T cell lysate
In short: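 HEK293T lysate (2 mg/mL) was treated with DMSO or electrophile (500 µM, 1 h, ambient temperature), then iodoacetamide alkyne (1 h), clicked to sCIP-TMT reagents, pooled, trypsin-digested overnight at 37 °C, streptavidin-enriched and acid-eluted. Peptides were run on Orbitrap Eclipse LC-MS/MS with FAIMS and quantified in FragPipe. The log2 competition ratio per cysteine is mean control-channel over mean compound-channel reporter intensity. Duplicate channels and three replicates were used, and cysteines quantified in only one replicate were excluded.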

Target | log2 ratio of iodoacetamide-alkyne labeling
PPM1G C164 (UniProt O15355) | inactive: 0.668
AP3D1 C1133 (UniProt O14617) | inactive: -0.597
UniProt O14733_C131 | inactive: 0.601
NVL C687 (UniProt O15381) | inactive: 0.62
IPO5 C750 (UniProt O00410) | inactive: 0.168
MIF4GD C49 (UniProt A9UHW6) | inactive: 0.465
AP3B1 C507 (UniProt O00203) | inactive: 0.248
EIF3D C258 (UniProt O15371) | inactive: 0.08
NVL C550 (UniProt O15381) | inactive: -0.302
HGS C166 (UniProt O14964) | inactive: 0.319
HGS C212 (UniProt O14964) | inactive: 0.0422
AP3D1 C348 (UniProt O14617) | inactive: 0.171
TNFRSF10B C341 (UniProt O14763) | inactive: -0.256
ARHGEF11 C402 (UniProt O15085) | inactive: 0.458
PFAS C270 (UniProt O15067) | inactive: 0.115
SIVA1 C62 (UniProt O15304) | inactive: 0.0239
UniProt O00567_C211 | active: 1.14
ARHGEF11 C1500 (UniProt O15085) | inactive: 0.0286
PRPF4 C299 (UniProt O43172) | inactive: 0.28

Target | log2 ratio of iodoacetamide-alkyne labeling
UniProt O00148_C197 | inactive: -0.0673
UniProt A8MW92_C472 | inactive: 0.361
IRS4 C257 (UniProt O14654) | inactive: -0.26
RNMT C95 (UniProt O43148) | inactive: 0.291
NDUFAB1 C140 (UniProt O14561) | inactive: 0.304
UniProt O43159_C317 | inactive: 0.138
UniProt O00487_C299 | inactive: -0.258
EXOC5 C517 (UniProt O00471) | inactive: 0.256
PDLIM1 C45 (UniProt O00151) | inactive: 0.0932
APAF1 C115 (UniProt O14727) | inactive: 0.288
NVL C626 (UniProt O15381) | inactive: 0.651
NKRF C453 (UniProt O15226) | inactive: 0.34
KMT2D C5314 (UniProt O14686) | inactive: 0.502
KMT2D C58 (UniProt O14686) | inactive: 0.263
AP3D1 C137 (UniProt O14617) | inactive: 0.262
MYO1C C802 (UniProt O00159) | inactive: 0.993
PRPF4 C441 (UniProt O43172) | inactive: 0.531
UniProt O00506_C357 | inactive: 0.395

Part of the list above, set out differently:

| Target | log2 ratio of iodoacetamide-alkyne labeling |
| --- | --- |
| RNMT C95 (UniProt O43148) | inactive: 0.291 |
| NDUFAB1 C140 (UniProt O14561) | inactive: 0.304 |
| UniProt O43159_C317 | inactive: 0.138 |
